Reference: PubChem BioAssay AID1224826 (NIAID, 2016)

- Assay: 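Knock-downs that raise or lower Tnf reporter signal after endotoxin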 (primary screen)
- Cell system: RAW264.7 G9 macrophages from mouse bearing reporters for p65 (GFP) and the Tnf promoter (mCherry)
- Reagent: siRNA pool against mouse genes, 100 nM
- Timing: 16 h of LPS stimulation, after 2 days of siRNA transfection
- Conditions: bacterial lipopolysaccharide (Salmonella minnesota R595), 10 ng/ml
- Measured: 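Nuclear mCherry signal of the Tnf promoter reporter measured by imaging after background removal, scaled to each plate median and turned into robust z-scores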
- Scale: Tnf reporter robust z-score: higher = stronger Tnf promoter reporter signal after LPS
- Hit rule: 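Called active when robust z-score is at most -1.3, matching the median of the Tlr4 knock-down control, or over 3; control wells and wells with under 50 cells never active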
- Meaning of the calls: active = Tnf reporter clearly lowered or raised; inactive = no clear change in Tnf reporter
Shown is one part, drawn at random, of about 17,000 deposited reagents. Of all reagents, about 1,110 (6.6%) were called active. 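Active means lowered or raised reporter signal; replicate intensities are raw and not normalised per plate.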 Unmarked entries are inactive. Not all columns of the deposit are shown.

Target gene	Tnf reporter robust z-score	fewer than 50 cells in well
Hsd11b1	1.31	enough cells in well
Prss23	1.54	enough cells in well
Stk39	-0.13	enough cells in well
Adcy6	-0.36	enough cells in well
Krabd3	2	enough cells in well
Larp1b	-0.55	enough cells in well
Nkg7	0.47	enough cells in well
Scube1	-0.97	enough cells in well
Aak1		fewer than 50 cells per well; well left out of calls
Cpsf1	0.87	enough cells in well
Tmem175		fewer than 50 cells per well; well left out of calls
Ak5	-0.96	enough cells in well
Gykl1	0.46	enough cells in well
Gemin8	1.02	enough cells in well
Acoxl	1.6	enough cells in well
Nmt2	1.66	enough cells in well
Sec24c		fewer than 50 cells per well; well left out of calls
Sox1	0.81	enough cells in well
Gpx1	0.64	enough cells in well
Vav2	-0.27	enough cells in well
Maml3	-0.62	enough cells in well
A930025A13Rik	-0.59	enough cells in well
Lipk	1.44	enough cells in well
Ccdc70		fewer than 50 cells per well; well left out of calls
Gpr101	-0.56	enough cells in well
Impg1	0.55	enough cells in well
Cmtm1	-0.18	enough cells in well
Exosc5	-0.01	enough cells in well
Vmn2r7	0.11	enough cells in well
Adgre1	-0.47	enough cells in well
Ctsf	-1.08	enough cells in well
Gns	0.25	enough cells in well
Or52j3	-0.03	enough cells in well
Rtn4rl1	-0.93	enough cells in well
Glod5		fewer than 50 cells per well; well left out of calls
Bud13	-1.51 (active)	enough cells in well
Pnmt	0.9	enough cells in well
Phtf2	-0.73	enough cells in well
Chd2	0.31	enough cells in well
Or5ar1	-0.64	enough cells in well
Rev1	-0.29	enough cells in well
Elf5	-0.64	enough cells in well
Stx16	0.62	enough cells in well
Stk16	-0.45	enough cells in well
Fxyd3	-0.68	enough cells in well
Cd74	-0.73	enough cells in well
Rnf121	1.63	enough cells in well
Ccr7	0.73	enough cells in well
Zwilch		fewer than 50 cells per well; well left out of calls
Kcnd2	0.21	enough cells in well
Oas1b	-1.26	enough cells in well
Nxnl2	-0.53	enough cells in well
Ier3	-0.75	enough cells in well
Mslnl		fewer than 50 cells per well; well left out of calls
Ldlrap1	-0.09	enough cells in well
Trappc14	-1.18	enough cells in well
Chst9	0.33	enough cells in well
Tlx3		fewer than 50 cells per well; well left out of calls

Reagents listed above marked active, once more:
Target gene	Tnf reporter robust z-score	fewer than 50 cells in well
Bud13	-1.51 (active)	enough cells in well
